Test results: publication PMC9892639
No constants are given. Whether binding was seen depends on the method and setting. In cells and extracts the contact can be indirect. Some entries that bind do so weakly or less than the wild type.

The chains behind the UniProt entries cited, without tags or fusion partners.
UniProt P51150: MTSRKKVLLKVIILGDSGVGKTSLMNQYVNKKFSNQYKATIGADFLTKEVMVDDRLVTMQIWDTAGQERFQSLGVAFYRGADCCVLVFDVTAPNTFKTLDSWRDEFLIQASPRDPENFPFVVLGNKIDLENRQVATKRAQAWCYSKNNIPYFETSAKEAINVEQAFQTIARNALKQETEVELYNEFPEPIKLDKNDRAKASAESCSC
UniProt Q8BGM7: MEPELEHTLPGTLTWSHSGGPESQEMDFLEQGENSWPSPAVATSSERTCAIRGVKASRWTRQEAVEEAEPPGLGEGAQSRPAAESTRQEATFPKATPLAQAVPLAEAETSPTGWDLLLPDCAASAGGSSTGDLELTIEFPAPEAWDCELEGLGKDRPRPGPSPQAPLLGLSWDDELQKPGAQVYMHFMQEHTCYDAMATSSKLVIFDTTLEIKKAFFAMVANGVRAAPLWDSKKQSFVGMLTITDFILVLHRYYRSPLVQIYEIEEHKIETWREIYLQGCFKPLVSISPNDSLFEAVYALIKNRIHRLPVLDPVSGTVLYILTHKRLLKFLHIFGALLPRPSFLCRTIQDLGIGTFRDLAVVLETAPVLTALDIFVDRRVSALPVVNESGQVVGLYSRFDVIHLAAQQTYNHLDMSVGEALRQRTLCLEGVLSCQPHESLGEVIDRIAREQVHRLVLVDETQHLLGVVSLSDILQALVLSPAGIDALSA

Key:
[1] = target: T1, Vam6 (also named Vps39) (mouse (endogenous in iNKT cells)) (UniProt Q8R5L3); experiment: proximity ligation; in situ PLA (Duolink) in fixed, permeabilised CD1d-PBS57 tetramer+ iNKT cells stimulated with anti-CD3 plus anti-CD28 or CD1d-PBS57 tetramer for 4 hours; puncta counted by confocal microscopy or imaging flow cytometry; cells from Vam6+/+, Vam6+/-, Vdac1+/+, Vdac1+/-, Vdac1-/- mice, with or without AICAR
T1 sequence: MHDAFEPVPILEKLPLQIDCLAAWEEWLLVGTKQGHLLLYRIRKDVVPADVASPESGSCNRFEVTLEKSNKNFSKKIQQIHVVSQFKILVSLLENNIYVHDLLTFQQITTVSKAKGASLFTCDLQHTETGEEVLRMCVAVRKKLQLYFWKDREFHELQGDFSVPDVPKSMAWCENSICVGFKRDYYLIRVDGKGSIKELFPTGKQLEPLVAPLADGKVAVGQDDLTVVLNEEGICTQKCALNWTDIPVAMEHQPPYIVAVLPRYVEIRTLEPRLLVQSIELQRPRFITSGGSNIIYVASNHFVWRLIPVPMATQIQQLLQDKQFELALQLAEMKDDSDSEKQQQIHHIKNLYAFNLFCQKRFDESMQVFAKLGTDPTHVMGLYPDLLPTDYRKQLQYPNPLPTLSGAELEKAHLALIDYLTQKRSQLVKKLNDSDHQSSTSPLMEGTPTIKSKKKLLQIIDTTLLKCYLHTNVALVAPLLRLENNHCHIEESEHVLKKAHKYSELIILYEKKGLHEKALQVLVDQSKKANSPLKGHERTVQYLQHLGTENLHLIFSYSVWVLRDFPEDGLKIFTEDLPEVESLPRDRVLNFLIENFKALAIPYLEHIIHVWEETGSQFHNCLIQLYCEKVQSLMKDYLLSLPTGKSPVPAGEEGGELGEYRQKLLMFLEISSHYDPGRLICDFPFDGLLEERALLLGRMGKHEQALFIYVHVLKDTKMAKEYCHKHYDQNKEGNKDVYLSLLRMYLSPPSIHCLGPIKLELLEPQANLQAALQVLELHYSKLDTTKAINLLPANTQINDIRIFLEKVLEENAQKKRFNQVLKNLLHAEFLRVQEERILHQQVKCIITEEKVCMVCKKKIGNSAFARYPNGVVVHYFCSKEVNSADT

mCherry-Vam6 = target: T2, mCherry-Vam6 (UniProt Q8R5L3); experiment: co-IP; mCherry-Vam6 wild type and truncated mutants (ΔCT, ΔCLH, ΔCNH) restored in Vam6 knockdown NIH-3T3 cells; NP-40 lysate, antibody-coated Dynabeads protein G, 4 °C overnight; immunoblot (Supplementary Figure 3B)
T2 sequence: T1 sequence

[2] = target: T1, Vam6 (also named Vps39) (mouse (endogenous in iNKT cells)); experiment: co-IP; expanded iNKT cells lysed in NP-40 buffer with protease inhibitors; antibody (1 μg/mL) on Dynabeads protein G, lysate incubated at 4 °C overnight; immunoblot
[3] = target: Rab7a (mouse (endogenous in iNKT cells)) (UniProt P51150); experiment: proximity ligation; in situ PLA (Duolink) in fixed, permeabilised CD1d-PBS57 tetramer+ iNKT cells stimulated with anti-CD3 plus anti-CD28 or CD1d-PBS57 tetramer for 4 hours; puncta counted by confocal microscopy or imaging flow cytometry; cells from Vam6+/+, Vam6+/-, Vdac1+/+, Vdac1+/-, Vdac1-/- mice, with or without AICAR

binding [1] | binding (mCherry-Vam6) | binding [2] | binding [3] | Substance
binds | binds | binds | – | Rab7a (from UniProt P51150 1-207)
binds | binds | binds | binds | AMPKγ3 (from UniProt Q8BGM7 1-489)
